Measurements published in patent US20260097106A1, “AVIRULENT LIVE BACTERIAL VACCINES CURED OF PLASMIDS CONTAINING ANTIMICROBIAL RESISTANCE GENES” (Drs. Koehnk & Feldman, LLP, priority 2022, published 2026).
“Also recorded” adds a separate entry of the source. At least one compound was matched to its structure with a doubt left.

Experiments:
Assay type in all cases: cell-based, E. coli
[1] = tested on: K88 Cured vaccine (MS-K88-030321HM-PC2BSRAK88); test: Antibiotic sensitivity (Int/MIC) at Iowa State University; conditions: cured MS-K88-030321HM-PC2BSRAK88 cells compared with ECMS091703HM-competent cells
Protocol: The antibiotic sensitivity of Entero Vac K88 cells cured of plasmids that contain AMR genes (MS-K88-030321HM-PC2BSRAK88) was performed at Iowa State University (ISU) with comparison to ECMS091703HM-competent cells.

[2] = tested on: MS112101HM-competent (competent Edema Vac F18 cells); test: AMR disc testing on Mueller Hinton agar plates; conditions: disc test
Protocol: (§1) AMR testing was performed comparing MS112101HM—SR, MS112101HM-AMR5, and MS112101HM-competent cells cultured on Mueller Hinton agar plates using Sulfatrim (SXT), Tetracycline (TE 30), Neomycin (NE 30), Sulfathiazine (ST 0.25), and Gentamicin (GM 10) discs.

[3] = tested on: MS112101HM-AMR5 (Edema Vac F18 transformed with AMR5 plasmid); test: AMR disc testing on Mueller Hinton agar plates; conditions: disc test
Protocol: as §1

[4] = tested on: MS112101HM-SR (Edema Vac F18 cells cured of plasmids that contain AMR genes); test: AMR disc testing on Mueller Hinton agar plates; conditions: disc test, MS112101HM-SR compared with MS112101HM-competent
Protocol: as §1

[5] = tested on: MS060520HM-PCISRAF18 cells; test: Tetracycline HCl serial dilution in TSB media, turbidity; conditions: serial dilutions of tetracycline HCl in TSB media
Protocol: Further evaluation of tetracycline sensitivity of cured MS060520HM-PCISRAF 18 cells was performed as follows: inoculating 10 ml of TSB media with MS060520HM-PCISRAF18 cells, incubating at 37° C. for 22 hours on orbital shaker at 150 rpm, preparing 1:1 serial dilutions of 5 ml tetracycline HCL in TSB media (from stock of 640 mg tetracycline HCl in 5 ml ultrapure water), inoculating the serial dilutions with 10 ul of the fermentate.

[6] = tested on: F18 Cured vaccine (MS060520HM-PCISRAF18); test: Antibiotic sensitivity (Int/MIC) at Iowa State University; conditions: cured MS060520HM-PCISRAF18 cells over MS112101HM-competent cells
Protocol: The antibiotic sensitivity of Edema Vac F18 cells cured of plasmids that contain AMR genes (MS060520HM-PCISRAF18) was performed at Iowa State University (ISU) (Accession: 2020076670) with comparison to MS112101HM-competent cells (see Tables 4 and 5).

SMILES	Antibiotic sensitivity of cured cells (in words) [1]	Resistance of the strain to the antibiotic (in words) [2]	Resistance of the strain to the antibiotic (in words) [3]	Resistance of the strain to the antibiotic (in words) [4]	Tetracycline resistance (in words) [5]	Antibiotic resistance of cured cells (in words) [6]
CN(C)[C@@H]1C(O)=C(C(N)=O)C(=O)[C@@]2(O)C(O)=C3C(=O)c4c(O)cccc4[C@@](C)(O)[C@H]3C[C@@H]12 [Tetracycline]	more sensitive	maintain tetracycline resistance	maintain tetracycline resistance	maintain tetracycline resistance	retain tetracycline resistance	loss of antibiotic resistance; also recorded: retained resistance
CCC[C@@H]1C[C@@H](C(=O)N[C@@H]([C@H]2O[C@H](SC)[C@H](O)[C@@H](O)[C@H]2O)[C@H](C)Cl)N(C)C1 [Clindamycin]						retained resistance
